Data taken from PubChem BioAssay AID493014 (National Center for Advancing Translational Sciences (NCATS), 2011).
The other results are listed elsewhere or left out. Shown are side measurements of this screen, not its main read-out; they come without a call. Compounds called inactive in the main read-out are mostly missing here. Words in brackets tell the shape of the fitted curve; partial curves, single points and poor fits give uncertain potencies.

Assay: qHTS Assay to Find Inhibitors of Chronic Active B-Cell Receptor Signaling
Details: ABC-DLBCL IkBa-CBG/CBR reporter, luminescence ratio (green luciferase fused to IkBa over red control in TMD8 lymphoma cells), 4 h
How it was run: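 Cell line TMD8 (human ABC DLBCL), stably expressing tet-inducible CBG68-IkBa fusion and CBR; IMDM/0.5% FBS; cpd up to 46 uM; dox induction, 4 h, 37C/5% CO2; dual luminescence; green/red ratio; MG132 control.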

[1] = measured here: CBR red luminescence, cell number
[2] = measured here: IkBa-CBG green luminescence

SMILES | AC50 [1] | AC50 [2]
O=C(Cc1cn2ccsc2n1)OCc1nc2ccccc2s1 | 2.51 µM [rising, partial curve, poor fit] | –
CCc1ccc(OCC(=O)Nc2cccc3nsnc23)cc1 | 15.8 µM [falling, partial curve, poor fit] | –
CN(C)CCCN(C(=O)C1COc2ccccc2O1)c1nc2cc3c(cc2s1)OCO3 (centres undefined) | 1.78 µM [falling, partial curve] | –
Cn1c(=O)[nH]c(=O)c2c1nc(N1CCCCC1)n2CCOc1ccccc1 | 3.55 µM [rising, single point] | –
CC1(NC(=O)CC(c2ccccc2)(c2ccccc2)c2ccccc2)CCN(CCCc2ccccc2)C1=O (centres undefined) | 14.6 µM [falling, partial curve] | 16.4 µM [rising, partial curve, poor fit]
O=C(O)CCn1c(-c2ccccc2)cc2ccccc21 | 12.6 µM [rising, single point] | –
Cc1ccc(C(=O)Nc2nnc(-c3ccco3)o2)cc1C | 23.1 µM [falling, single point] | 32.6 µM [falling, partial curve, poor fit]
O=c1cc(NC2CCCCC2)c2ccccc2o1 | 32.6 µM [falling, single point] | –
Cc1cc([N+](=O)[O-])ccc1NC(=S)NC(=O)Cc1ccccc1 | 6.51 µM [rising, single point] | –
FC(F)(F)c1ccc(-c2nc(=S)[nH][nH]2)cc1 | 11.2 µM [rising, partial curve, poor fit] | –
COc1ccc(S(=O)(=O)NCc2ccc3c(c2)OCO3)cc1C | 32.6 µM [rising, partial curve, poor fit] | –
COc1cccc(NC(=O)C(=O)NCCC2CCCCN2S(=O)(=O)c2cccs2)c1 (centres undefined) | 1.3 µM [falling, full curve] | –
Cc1cc(NC(=O)CSc2nc3c(C)cccc3cc2C#N)no1 | 11.2 µM [falling, single point] | –
COC(=O)c1ccc(-n2c(/C=C\c3cccc(Br)c3)nc3ccccc3c2=O)cc1 | 3.98 µM [rising, partial curve, poor fit] | –
C=CC(=O)Nc1sc2c(c1C(N)=O)CCCC2 | 18.4 µM [falling, partial curve] | –
O=C(Nc1nccs1)c1nc[nH]c1C(=O)NCc1ccccc1 | – | 0.146 µM [rising, full curve, poor fit]
COc1cc(NCCCC(C)N)c2ncccc2c1 (centres undefined) | 4.47 µM [falling, full curve] | –
O=C(/C=C/c1ccccc1[N+](=O)[O-])N1CCOCC1 | 0.631 µM [falling, full curve, poor fit] | –
CN(C)CC(O)COC(c1ccc(Cl)cc1)c1ccc(Cl)cc1 (centres undefined) | 10 µM [falling, partial curve] | –
Cc1ccc(C)c(CN2CCCN(Cc3cc(C)ccc3C)S2(=O)=O)c1 | 8.91 µM [rising, single point] | –
O=C(N/N=C/c1ccco1)c1ccc(C(=O)N/N=C/c2ccco2)o1 | 17.8 µM [falling, single point] | –
CC(Sc1ccccc1)C(=O)NCCc1ccccc1 (centres undefined) | 22.4 µM [rising, single point] | –

SMILES | AC50 [1] | AC50 [2]
O=C1C(Nc2ccccc2)=C(N2CCCCC2)C(=O)c2ccccc21 | 20 µM [falling, single point] | –
CCCn1nc2cc(C(=O)NC3CCc4ccccc43)ccc2c1OCC (centres undefined) | 25.9 µM [rising, single point] | –
CC1CCCCC1NC(=O)c1ccc(NS(=O)(=O)c2ccc3[nH]c(=O)[nH]c3c2)cc1 (centres undefined) | 29.1 µM [rising, single point] | –
c1ccc(-c2cc(-c3ccccc3)[nH]n2)cc1 | 12.6 µM [falling, single point] | –
CC(C)CSc1ncc(-c2cccc(C(F)(F)F)c2)cn1 | 7.94 µM [rising, partial curve, poor fit] | –
CCSc1nnc(SCC(=O)NC2CCCCC2)s1 | 14.6 µM [rising, partial curve, poor fit] | –
Cc1ccccc1Nc1nc(N)nc(CSc2nnnn2-c2ccccc2)n1 | 0.0206 µM [rising, full curve, poor fit] | –
COC(=O)c1cccnc1NC(=S)NNC(=O)c1ccccc1 | 0.082 µM [rising, full curve] | –
COc1cc(OC)cc(C(=O)N[C@H](C(=O)OCC(=O)Nc2ccc(C(N)=O)cc2)C(C)C)c1 | 10.3 µM [rising, partial curve, poor fit] | –
N#C/C(=C\Nc1ccc2cn[nH]c2c1)c1nc(-c2ccc(Cl)cc2)cs1 | 20 µM [falling, partial curve, poor fit] | –
Cc1nc2cc(NS(=O)(=O)c3c(C)c(C)cc(C)c3C)ccc2s1 | 1.64 µM [falling, partial curve, poor fit] | 29.1 µM [rising, partial curve, poor fit]
Cc1cccc2c1-c1sc(C(=O)Nc3nccs3)cc1CO2 | 0.0731 µM [falling, full curve] | –
CC(C)Oc1ccc(C(CC(=O)O)NC(=O)Cc2ccccc2)cc1 (centres undefined) | 31.6 µM [rising, single point] | –
Cc1[nH][nH]c(=O)c1[C@@H](c1ccccc1[N+](=O)[O-])C(C#N)C#N | 0.562 µM [falling, full curve, poor fit] | –
CCCc1nnc(SCC(=O)O)n1CC | 17.8 µM [rising, single point] | –
COc1ccc(/C=C/C(=O)NC2CCS(=O)(=O)C2)cc1 (centres undefined) | 3.26 µM [rising, single point] | –
N#CC(C(=S)Nc1ccccc1)c1nc2ccccc2[nH]1 (centres undefined) | – | 2.24 µM [falling, partial curve, poor fit]
COC(=O)c1cc(C)sc1NC(=O)CN1CCN(C(=O)c2ccco2)CC1 | 0.562 µM [falling, full curve, poor fit] | –
Cc1noc(C)c1/C=N/Nc1ccc2ccccc2n1 | 2.24 µM [falling, full curve] | –
N#C/C(=C\c1cccc([N+](=O)[O-])c1)C(=O)NCC1CCCO1 (centres undefined) | 14.1 µM [falling, partial curve] | –
COc1ccc(CNC(=O)CN(c2ccccc2OC)S(=O)(=O)c2ccc(C)cc2)cc1 | 7.94 µM [falling, partial curve, poor fit] | –
O=C(COc1ccc(Cl)cc1[N+](=O)[O-])N1CCCCCC1 | 31.6 µM [rising, single point] | –

SMILES | AC50 [1] | AC50 [2]
Cc1cccc(-n2ccnc2SCC(=O)Nc2nccs2)c1 | 0.891 µM [rising, full curve, poor fit] | –
COc1ccc(NC(=O)COc2ccc(/C=N/n3c(C)nnc3C)cc2OC)cc1 | 25.9 µM [falling, partial curve, poor fit] | –
CCOc1ccc(NC(=O)c2ccccc2OC)cc1 | 6.31 µM [rising, single point] | –
Cc1cccc(/C(N)=N/OC(=O)c2cccnc2)c1 | 35.5 µM [falling, single point] | –
CCC/C(O)=C1\C(=O)CC(C)(C)CC1=Nc1ccc(OC)cc1 | 14.1 µM [falling, single point] | –
Cn1c(=O)c(C(=O)NNC(=O)c2ccccc2Br)c(O)c2ccccc21 | 0.398 µM [falling, full curve] | –
CC1CCCCN1C(=O)/C=C/c1ccccc1[N+](=O)[O-] (centres undefined) | 35.5 µM [falling, single point] | –
CCn1nnnc1NC(=O)c1cccc(OC)c1 | 22.4 µM [falling, partial curve] | –
O=C(CSc1n[nH]c(=O)n1Cc1ccccc1)Nc1ccc(F)c(F)c1F | 35.5 µM [falling, single point] | –
COc1ccc(N2CC(C(=O)Nc3c(C(N)=O)oc4ccccc34)CC2=O)cc1 (centres undefined) | 6.51 µM [falling, partial curve] | –
O=[N+]([O-])c1ccc(SCCc2ccccn2)cc1 | 12.6 µM [rising, partial curve, poor fit] | –
Clc1ccc(CO/N=C2\CCCc3nonc32)c(Cl)c1 | 29.1 µM [rising, single point] | –
COc1ccc(C(=O)Cn2c(=N)n(C)c3ccccc32)cc1 | 1.26 µM [rising, partial curve, poor fit] | –
O=[N+]([O-])c1ccc(O)c(P(=O)(c2ccccc2)c2ccccc2)c1 | 35.5 µM [falling, single point] | –
O=C(CSc1nc2ccccc2s1)N/N=C/c1cc([N+](=O)[O-])ccc1O | 3.55 µM [falling, full curve] | –
COc1ccccc1C(=O)NC(=O)COC(=O)c1ccco1 | 29.1 µM [rising, single point] | –
C=CCn1c(-c2ccc3[nH]c(C)c(C)c3c2)n[nH]c1=S | 2.51 µM [rising, full curve, poor fit] | –
COc1ccc(-c2nc(C)ncc2-c2csc(C)n2)c(O)c1 | 3.66 µM [falling, single point] | –
CCOC(=O)c1sc(NC(=O)c2cc3c(s2)CCC(C)C3)nc1C (centres undefined) | 0.103 µM [falling, full curve] | –
Cc1c(C(=O)Nc2ccc(N3CCOCC3)cc2)oc2ccccc12 | 8.91 µM [falling, partial curve, poor fit] | –
COc1ccccc1N=CC1=C(O)CC(c2ccccc2)CC1=O (centres undefined) | 0.326 µM [falling, full curve] | –
Cc1nc(N[C@@H](Cc2ccccc2)C(=O)O)c2oc3ccccc3c2n1 | 3.16 µM [falling, single point] | –

Arranged by formula weight (smallest number first): some entries from above
SMILES | AC50 [1] | AC50 [2]
Clc1ccc(CO/N=C2\CCCc3nonc32)c(Cl)c1 | 29.1 µM [rising, single point] | –
CCC/C(O)=C1\C(=O)CC(C)(C)CC1=Nc1ccc(OC)cc1 | 14.1 µM [falling, single point] | –
O=[N+]([O-])c1ccc(O)c(P(=O)(c2ccccc2)c2ccccc2)c1 | 35.5 µM [falling, single point] | –
